Data: article PMC2883596
Results are given in words; binding and its absence hold for the method and conditions named. Binding seen in cells or lysates may run through a third protein. Some results given as binding are weak or reduced against the parent protein; the word gives no strength.

Chains of the proteins cited; added tags and fusions are not shown. Lines headed by an entry give the natural chain unless they say otherwise; changes in a name come on top.
UniProt Q05655: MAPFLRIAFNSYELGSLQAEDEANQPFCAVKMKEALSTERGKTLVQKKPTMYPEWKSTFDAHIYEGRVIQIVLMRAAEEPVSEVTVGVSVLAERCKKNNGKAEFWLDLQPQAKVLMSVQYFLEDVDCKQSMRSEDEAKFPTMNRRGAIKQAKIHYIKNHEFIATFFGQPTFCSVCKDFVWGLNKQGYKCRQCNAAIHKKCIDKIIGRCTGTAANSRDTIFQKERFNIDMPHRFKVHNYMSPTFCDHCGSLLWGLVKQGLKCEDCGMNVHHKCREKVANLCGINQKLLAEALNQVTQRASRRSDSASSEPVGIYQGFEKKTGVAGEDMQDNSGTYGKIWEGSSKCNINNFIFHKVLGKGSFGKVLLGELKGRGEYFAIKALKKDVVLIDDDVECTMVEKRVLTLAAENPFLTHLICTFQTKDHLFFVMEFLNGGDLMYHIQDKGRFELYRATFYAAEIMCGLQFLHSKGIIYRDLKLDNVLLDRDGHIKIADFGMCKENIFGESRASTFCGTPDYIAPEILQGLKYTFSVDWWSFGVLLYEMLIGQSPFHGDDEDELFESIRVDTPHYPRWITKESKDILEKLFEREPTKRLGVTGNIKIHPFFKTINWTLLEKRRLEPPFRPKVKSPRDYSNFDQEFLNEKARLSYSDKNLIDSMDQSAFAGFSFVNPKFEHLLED

Target: heteronuclear ribonuclear protein K (hnRNP K) (human (endogenous in fibroblasts)) (UniProt P61978)
Experiment: co-IP; hnRNP K immunoprecipitated with anti-hnRNP K antibody from lysates of normal and SCA10 (~2000 repeats) fibroblasts; lysis and wash buffer 20 mM HEPES pH 7.4, 1 mM EDTA, 100 mM NaCl, 1% NP-40; blotted for hnRNP K, then PKCδ

binding: binds
Substance: Protein Kinase C δ (PKCδ) (from UniProt Q05655 1-676) (enzyme)
